# Test results reported in the supplement of paper PMC8728848.
# Some of the results follow.
# B1: Awp1 (Candida glabrata) (protein)
# chain: MSLITIFAFLIKATLVLSLDILTPTTLTGDQTFNEDVSVVSSLTLNDGSQYLFNNLLQIAPSSASVTANALAAVSVFTFSLPPSSSLSNSGTLIISNSNTGPSTEQHIVITPNVMANTGTITLSLAHTNTDSSSTLIIDPVTFYNTGTINYESIGSETNDPSLTGNILSIGSSGRTLQNLGTINLNAANSYYLLGTITENSGSINVQKGFLYVNALDFIGNTINLSTTTALAFISPVSQVVRVRGVFFGNIIASVGSSGTFSYNTQTGILTVTTNGVYSYDIGCGYNPALMSGQQETLSFQGNPYDTFLVLVNQPIPSDLTCAAVSSSITPSSSVEPSSSVVPSSSVEPSSSVEPSSSVEPSSSVEPSSSVEPSSSVEPSSSVEPSSSVEPSSSVEPSSSVEPSSSVEPSSSVEPSSSVEPSSSVEPSSSVEPSSSVEPSSSVEPSSSVEPSSSVEPSSLIVPSSSVEPSSSVLPSSSVVPSSSVEPSTPPIPSSSVEPSSSVVPSSPAVPSSSVEPSTPPIPSSSVVSASVFDTSSTLPSSPSVPPSSVSPSTISTPSSSAAPSSFCPTCVSSGTPPAPSSSAIVPTSSAGGGNGGDNREPGAAGQPGAAGQPGAAGQPGAAGQPGAAGQPGAAGQPGAAGQPGAAGQPGAAGQPGAAGQPGAGFGVGSEQPTPGAGAGSGSADGNQSGTGSGTGNGQQGSGQAGSGQAGSGQEGSGQAGSGQAGSGQAGSGQAGSGQAGLDNTASGQSEGGQASAMDGDQSGRDGQSNSGSLLQPNAQQGTGSGTGSDIGADQASGESPGQIGDAQPGSGTDQSSGRHSLAAEARTSQSHSLAADARTRSTTRQTSVIAPDTAPGTASGTAPGTAPGTAVVTTFHGCGTVNHKGMINILLALALLVLL
# Key:
# Assay in all cases: glycan array binding signal (z-score within array); higher = stronger binding
# Conditions in all cases: glycan notation: IUPAC condensed, linker removed
# Fuc(a1-2)Gal = target: Fuc(a1-2)Gal
# Procedure, shortened: (§1)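 The binding signal is a Z-score computed within each array. Data were drawn from 3228 arrays in the Consortium for Functional Glycomics database, restricted to those with a known protein sequence. Scores were averaged over arrays of the same protein sequence at different concentrations or buffers, and over linkers, and negative values can be taken as non-binding.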
# Fuc(a1-2)Gal(b1-3)GalNAc = target: Fuc(a1-2)Gal(b1-3)GalNAc
# Procedure, shortened: as §1
# [1] = target: Fuc(a1-2)Gal(b1-3)GalNAc(a1-3)[Fuc(a1-2)]Gal(b1-4)Glc
# Procedure, shortened: as §1
# [2] = target: Fuc(a1-2)Gal(b1-3)GalNAc(a1-3)[Fuc(a1-2)]Gal(b1-4)GlcNAc
# Procedure, shortened: as §1
# [3] = target: Fuc(a1-2)Gal(b1-3)GalNAc(b1-3)Gal
# Procedure, shortened: as §1
# [4] = target: Fuc(a1-2)Gal(b1-3)GalNAc(b1-3)Gal(a1-4)Gal(b1-4)Glc
# Procedure, shortened: as §1
# [5] = target: Fuc(a1-2)Gal(b1-3)GalNAc(b1-4)[Neu5Ac(a2-3)]Gal(b1-4)Glc
# Procedure, shortened: as §1
# Fuc(a1-2)Gal(b1-3)GlcNAc = target: Fuc(a1-2)Gal(b1-3)GlcNAc
# Procedure, shortened: as §1
# [6] = target: Fuc(a1-2)Gal(b1-3)GlcNAc(b1-2)Man(a1-3)[Fuc(a1-2)Gal(b1-3)GlcNAc(b1-2)Man(a1-6)]Man(b1-4)GlcNAc(b1-4)GlcNAc
# Procedure, shortened: as §1
# [7] = target: Fuc(a1-2)Gal(b1-3)GlcNAc(b1-2)Man(a1-3)[Fuc(a1-2)Gal(b1-3)GlcNAc(b1-2)Man(a1-6)]Man(b1-4)GlcNAc(b1-4)[Fuc(a1-6)]GlcNAc
# Procedure, shortened: as §1
# [8] = target: Fuc(a1-2)Gal(b1-3)GlcNAc(b1-3)Gal(b1-4)Glc
# Procedure, shortened: as §1
# [9] = target: Fuc(a1-2)Gal(b1-3)GlcNAc(b1-3)GalNAc
# Procedure, shortened: as §1
# [10] = target: Fuc(a1-2)Gal(b1-3)GlcNAc(b1-3)[Fuc(a1-2)Gal(b1-3)GlcNAc(b1-6)]GalNAc
# Procedure, shortened: as §1
# [11] = target: Fuc(a1-2)Gal(b1-3)GlcNAc(b1-3)[Gal(b1-4)GlcNAc(b1-6)]Gal(b1-4)Glc
# Procedure, shortened: as §1
# [12] = target: Fuc(a1-2)Gal(b1-3)GlcNAc(b1-3)[Neu5Ac(a2-6)Gal(b1-4)GlcNAc(b1-6)]Gal(b1-4)Glc
# Procedure, shortened: as §1
# [13] = target: Fuc(a1-2)Gal(b1-3)GlcNAc6S
# Procedure, shortened: as §1
# [14] = target: Fuc(a1-2)Gal(b1-3)[Fuc(a1-4)]GlcNAc
# Procedure, shortened: as §1
# [15] = target: Fuc(a1-2)Gal(b1-3)[Fuc(a1-4)]GlcNAc(b1-2)Man(a1-3)[Fuc(a1-2)Gal(b1-3)[Fuc(a1-4)]GlcNAc(b1-2)Man(a1-3)]Man(b1-4)GlcNAc(b1-4)GlcNAc
# Procedure, shortened: as §1
# [16] = target: Fuc(a1-2)Gal(b1-3)[Fuc(a1-4)]GlcNAc(b1-2)Man(a1-3)[Fuc(a1-2)Gal(b1-3)[Fuc(a1-4)]GlcNAc(b1-2)Man(a1-6)]Man(b1-4)GlcNAc(b1-4)[Fuc(a1-6)]GlcNAc(b1-4)[Fuc(a1-6)]GlcNAc
# Procedure, shortened: as §1
# [17] = target: Fuc(a1-2)Gal(b1-3)[Fuc(a1-4)]GlcNAc(b1-3)[Fuc(a1-3)[Gal(b1-4)]GlcNAc(b1-6)]Gal(b1-4)Glc
# Procedure, shortened: as §1
# [18] = target: Fuc(a1-2)Gal(b1-3)[Fuc(a1-4)]GlcNAc(b1-3)[Gal(b1-4)GlcNAc(b1-6)]Gal(b1-4)Glc
# Procedure, shortened: as §1
# Fuc(a1-2)Gal(b1-4)Glc = target: Fuc(a1-2)Gal(b1-4)Glc
# Procedure, shortened: as §1
# Fuc(a1-2)Gal(b1-4)Glc6S = target: Fuc(a1-2)Gal(b1-4)Glc6S
# Procedure, shortened: as §1
# Fuc(a1-2)Gal(b1-4)GlcNAc = target: Fuc(a1-2)Gal(b1-4)GlcNAc
# Procedure, shortened: as §1
# [19] = target: Fuc(a1-2)Gal(b1-4)GlcNAc(b1-2)Man
# Procedure, shortened: as §1
# [20] = target: Fuc(a1-2)Gal(b1-4)GlcNAc(b1-2)Man(a1-3)[Fuc(a1-2)Gal(b1-4)GlcNAc(b1-2)Man(a1-6)]Man(b1-4)GlcNAc(b1-4)GlcNAc
# Procedure, shortened: as §1
# [21] = target: Fuc(a1-2)Gal(b1-4)GlcNAc(b1-2)Man(a1-3)[Fuc(a1-2)Gal(b1-4)GlcNAc(b1-2)Man(a1-6)]Man(b1-4)GlcNAc(b1-4)[Fuc(a1-6)]GlcNAc
# Procedure, shortened: as §1
# [22] = target: Fuc(a1-2)Gal(b1-4)GlcNAc(b1-2)[Fuc(a1-2)Gal(b1-4)GlcNAc(b1-4)]Man(a1-3)[Fuc(a1-2)Gal(b1-4)GlcNAc(b1-2)Man(a1-6)]Man(b1-4)GlcNAc(b1-4)GlcNAc
# Procedure, shortened: as §1
# [23] = target: Fuc(a1-2)Gal(b1-4)GlcNAc(b1-3)Gal(b1-4)GlcNAc
# Procedure, shortened: as §1
# [24] = target: Fuc(a1-2)Gal(b1-4)GlcNAc(b1-3)Gal(b1-4)GlcNAc(b1-2)Man(a1-3)[Fuc(a1-2)Gal(b1-4)GlcNAc(b1-3)Gal(b1-4)GlcNAc(b1-2)Man(a1-6)]Man(b1-4)GlcNAc(b1-4)GlcNAc
# Procedure, shortened: as §1
binder,measurement,setting,value
B1,glycan array binding signal (z-score),Fuc(a1-2)Gal,-0.353
same,glycan array binding signal (z-score),Fuc(a1-2)Gal(b1-3)GalNAc,-0.005
same,glycan array binding signal (z-score),[1],0.542
same,glycan array binding signal (z-score),[2],0.588
same,glycan array binding signal (z-score),[3],0.579
same,glycan array binding signal (z-score),[4],-0.191
same,glycan array binding signal (z-score),[5],0.598
same,glycan array binding signal (z-score),Fuc(a1-2)Gal(b1-3)GlcNAc,-0.289
same,glycan array binding signal (z-score),[6],3.11
same,glycan array binding signal (z-score),[7],-0.776
same,glycan array binding signal (z-score),[8],-0.568
same,glycan array binding signal (z-score),[9],-0.915
same,glycan array binding signal (z-score),[10],-1.05
same,glycan array binding signal (z-score),[11],0.987
same,glycan array binding signal (z-score),[12],1.26
same,glycan array binding signal (z-score),[13],-0.994
same,glycan array binding signal (z-score),[14],0.456
same,glycan array binding signal (z-score),[15],1.49
same,glycan array binding signal (z-score),[16],0.861
same,glycan array binding signal (z-score),[17],-1.7
same,glycan array binding signal (z-score),[18],2.29
same,glycan array binding signal (z-score),Fuc(a1-2)Gal(b1-4)Glc,-0.673
same,glycan array binding signal (z-score),Fuc(a1-2)Gal(b1-4)Glc6S,-0.401
same,glycan array binding signal (z-score),Fuc(a1-2)Gal(b1-4)GlcNAc,-0.027
same,glycan array binding signal (z-score),[19],0.701
same,glycan array binding signal (z-score),[20],1.05
same,glycan array binding signal (z-score),[21],-0.474
same,glycan array binding signal (z-score),[22],0.228
same,glycan array binding signal (z-score),[23],0.691
same,glycan array binding signal (z-score),[24],-1.39

# 2 entries from above, set out differently.
binder	measurement	setting	value
B1	glycan array binding signal (z-score)	[9]	-0.915
same	glycan array binding signal (z-score)	[10]	-1.05
